No constants are given. Whether binding was seen depends on the method and setting. A result given as binding can be weak or reduced; the word gives no strength.
Target: TAP1 with a C-terminal SpyCatcher (human) (UniProt Q03518)
Test: cryo-EM structure; both purified

The chains behind the UniProt entries cited, without tags or fusion partners. Residues count along the entry.
UniProt P14334, residues 20-183: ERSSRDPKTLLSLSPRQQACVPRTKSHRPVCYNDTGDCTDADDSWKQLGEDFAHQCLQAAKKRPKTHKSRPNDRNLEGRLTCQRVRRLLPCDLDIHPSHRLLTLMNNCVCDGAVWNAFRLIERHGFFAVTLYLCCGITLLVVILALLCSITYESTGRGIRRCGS

With “hUS6 (human cytomegalovirus US6) fused to SpyTag (from UniProt P14334 20-183)” the binding was “binds”.
